Reference: paper doi:10.1101/2023.11.22.568272, “Sec7 regulatory domains scaffold autoinhibited and active conformations” (bioRxiv, 2023)
No constants are given. Whether binding was seen depends on the method and setting. Some binding calls cover weakened binding; strength is not graded here.

By UniProt entry, the sequences of proteins in these tests, tags left out. Where a name states a change or a piece, a line headed by the entry shows the natural chain unless it says otherwise. Chains listed by the source or under a name are the forms on record and can include a tag or linker.
S. cerevisiae Sec7 L1376D/ΔD-loop double mutant (P11075, form named): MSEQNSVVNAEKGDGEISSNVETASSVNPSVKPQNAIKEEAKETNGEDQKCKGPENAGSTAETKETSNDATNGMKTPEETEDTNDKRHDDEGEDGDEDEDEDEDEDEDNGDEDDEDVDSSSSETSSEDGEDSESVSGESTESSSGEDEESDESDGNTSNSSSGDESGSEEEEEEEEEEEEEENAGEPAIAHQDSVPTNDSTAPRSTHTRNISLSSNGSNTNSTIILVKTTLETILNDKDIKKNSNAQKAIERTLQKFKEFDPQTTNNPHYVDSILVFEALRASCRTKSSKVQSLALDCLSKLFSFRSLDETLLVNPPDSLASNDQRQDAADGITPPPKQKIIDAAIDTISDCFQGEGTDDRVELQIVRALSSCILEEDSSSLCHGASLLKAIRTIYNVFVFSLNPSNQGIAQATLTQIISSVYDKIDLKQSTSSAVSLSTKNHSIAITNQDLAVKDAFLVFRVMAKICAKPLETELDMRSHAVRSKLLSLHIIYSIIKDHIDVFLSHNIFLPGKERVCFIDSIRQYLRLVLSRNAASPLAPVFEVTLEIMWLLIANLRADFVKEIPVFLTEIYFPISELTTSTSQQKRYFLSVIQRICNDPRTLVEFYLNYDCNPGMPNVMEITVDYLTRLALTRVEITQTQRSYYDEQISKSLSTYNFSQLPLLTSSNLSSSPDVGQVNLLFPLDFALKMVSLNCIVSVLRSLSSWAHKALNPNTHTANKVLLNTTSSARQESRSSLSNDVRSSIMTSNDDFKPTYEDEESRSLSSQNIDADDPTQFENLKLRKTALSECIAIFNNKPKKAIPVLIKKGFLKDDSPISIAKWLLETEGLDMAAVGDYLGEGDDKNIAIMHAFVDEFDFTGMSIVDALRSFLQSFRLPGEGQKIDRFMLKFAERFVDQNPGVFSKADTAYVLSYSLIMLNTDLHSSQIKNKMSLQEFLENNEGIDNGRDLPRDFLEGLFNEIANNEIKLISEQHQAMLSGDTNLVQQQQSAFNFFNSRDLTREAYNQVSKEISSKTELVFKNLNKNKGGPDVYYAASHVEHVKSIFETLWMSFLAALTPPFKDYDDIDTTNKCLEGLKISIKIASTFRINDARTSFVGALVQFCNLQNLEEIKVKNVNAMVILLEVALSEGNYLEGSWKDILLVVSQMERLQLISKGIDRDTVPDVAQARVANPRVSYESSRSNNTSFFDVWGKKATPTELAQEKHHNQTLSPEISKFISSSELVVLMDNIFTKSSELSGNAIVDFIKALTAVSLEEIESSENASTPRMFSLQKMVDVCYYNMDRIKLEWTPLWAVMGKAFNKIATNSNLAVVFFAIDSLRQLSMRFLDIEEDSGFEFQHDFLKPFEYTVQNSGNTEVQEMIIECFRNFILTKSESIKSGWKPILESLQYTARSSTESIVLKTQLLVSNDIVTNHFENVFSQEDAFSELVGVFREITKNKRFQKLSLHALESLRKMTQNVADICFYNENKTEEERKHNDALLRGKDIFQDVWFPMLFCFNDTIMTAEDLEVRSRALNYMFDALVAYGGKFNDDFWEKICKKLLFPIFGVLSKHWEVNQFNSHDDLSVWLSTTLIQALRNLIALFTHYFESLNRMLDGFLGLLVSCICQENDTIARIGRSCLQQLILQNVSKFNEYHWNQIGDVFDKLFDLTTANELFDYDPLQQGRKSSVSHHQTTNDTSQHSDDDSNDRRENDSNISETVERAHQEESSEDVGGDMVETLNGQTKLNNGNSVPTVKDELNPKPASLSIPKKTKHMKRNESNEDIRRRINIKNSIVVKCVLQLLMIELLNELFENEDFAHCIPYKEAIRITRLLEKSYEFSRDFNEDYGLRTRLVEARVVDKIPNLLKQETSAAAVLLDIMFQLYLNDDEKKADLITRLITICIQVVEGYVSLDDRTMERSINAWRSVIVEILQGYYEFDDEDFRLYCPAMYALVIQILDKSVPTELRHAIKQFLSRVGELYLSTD

Biological target: T1, myristoylated Arf1-GTP (Arf1 loaded with GMPPNP on TGN-like liposomes) (S. cerevisiae) (UniProt P11076)
T1 sequence (chain, myristoylated; loaded with GMPPNP): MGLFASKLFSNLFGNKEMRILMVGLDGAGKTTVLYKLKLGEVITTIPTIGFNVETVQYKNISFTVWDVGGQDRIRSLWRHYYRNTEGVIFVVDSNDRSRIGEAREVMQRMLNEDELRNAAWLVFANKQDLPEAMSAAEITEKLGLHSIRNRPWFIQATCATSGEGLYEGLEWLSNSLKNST
Assay: liposome flotation; 250 μM synthetic TGN-like liposomes pre-loaded with titrated molar ratios of myristoylated Arf1-GMPPNP by EDTA exchange; 550 nM Sec7 construct, room temperature 1 hour; flotation by ultracentrifugation under a sucrose gradient; SDS-PAGE and densitometry; both purified

- binding: binds
Substance: S. cerevisiae Sec7 L1376D/ΔD-loop double mutant (from UniProt P11075 1-2009)
